In article PMC4188579:
No constants are given. Whether binding was seen depends on the method and setting. Binding seen in cells or lysates may run through a third protein. Some binding calls cover weakened binding; strength is not graded here.

Sequences of proteins named here, by UniProt entry; tags and fusion partners are left off.
UniProt P25911: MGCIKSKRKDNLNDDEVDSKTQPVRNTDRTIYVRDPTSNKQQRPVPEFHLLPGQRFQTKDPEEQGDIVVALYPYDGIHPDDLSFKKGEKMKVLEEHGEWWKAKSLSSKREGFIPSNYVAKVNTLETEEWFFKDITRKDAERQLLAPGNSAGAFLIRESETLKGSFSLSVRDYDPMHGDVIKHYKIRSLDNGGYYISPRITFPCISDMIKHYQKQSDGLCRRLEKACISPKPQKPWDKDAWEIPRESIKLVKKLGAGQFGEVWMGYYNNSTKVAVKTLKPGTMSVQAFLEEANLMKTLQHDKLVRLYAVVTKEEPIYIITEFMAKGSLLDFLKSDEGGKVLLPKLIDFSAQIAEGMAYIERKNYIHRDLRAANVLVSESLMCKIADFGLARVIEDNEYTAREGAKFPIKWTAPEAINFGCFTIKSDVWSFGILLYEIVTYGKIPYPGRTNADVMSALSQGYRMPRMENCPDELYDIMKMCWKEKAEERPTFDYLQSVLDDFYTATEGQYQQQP

Biological target: T1, Phospholipid Scramblase 1 (mouse (endogenous in BMMC)) (UniProt Q9JJ00)
T1 sequence: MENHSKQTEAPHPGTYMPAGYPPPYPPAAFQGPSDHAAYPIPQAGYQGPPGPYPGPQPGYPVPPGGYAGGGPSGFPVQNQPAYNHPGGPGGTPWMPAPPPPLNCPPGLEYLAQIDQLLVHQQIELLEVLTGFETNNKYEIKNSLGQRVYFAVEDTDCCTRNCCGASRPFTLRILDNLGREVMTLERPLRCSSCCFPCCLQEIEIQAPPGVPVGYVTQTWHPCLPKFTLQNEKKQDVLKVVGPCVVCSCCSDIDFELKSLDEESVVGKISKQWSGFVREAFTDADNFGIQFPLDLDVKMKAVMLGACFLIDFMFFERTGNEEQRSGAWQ
Assay: co-IP; lysates (0.5% Triton X-100) of IgE-sensitized BMMC from wild-type and Fyn-deficient mice, stimulated or not with antigen for 10 min; PLSCR1 immunoprecipitated with mAb 1A8 on beads, 2 hr at 4°C; blot with anti-Lyn antibodies

Question: “Lyn tyrosine kinase (from UniProt P25911 1-512) (enzyme)” was tested. Which binding did it give?
Answer: The binding was “binds”.
